Reference: PubChem BioAssay AID743255 (National Center for Advancing Translational Sciences (NCATS), 2014)
Among all 390,000 compounds or so, about 910 (0.23%) were called active. Inconclusive means that the source gave no clear call. Such entries were picked first, then a sample of the others. Calls come from the whole dose curve; as a rule, active = well fitted inhibition curve with a large enough effect; inconclusive = small, poorly fitted or top-dose-only effect; inactive = no such curve, though single readings can be large or run the other way. Where the call is inconclusive, the potency comes from a doubtful curve fit.

Chains of the proteins cited; added tags and fusions are not shown. Lines headed by an entry give the natural chain unless they say otherwise; changes in a name come on top.
UniProt O94782: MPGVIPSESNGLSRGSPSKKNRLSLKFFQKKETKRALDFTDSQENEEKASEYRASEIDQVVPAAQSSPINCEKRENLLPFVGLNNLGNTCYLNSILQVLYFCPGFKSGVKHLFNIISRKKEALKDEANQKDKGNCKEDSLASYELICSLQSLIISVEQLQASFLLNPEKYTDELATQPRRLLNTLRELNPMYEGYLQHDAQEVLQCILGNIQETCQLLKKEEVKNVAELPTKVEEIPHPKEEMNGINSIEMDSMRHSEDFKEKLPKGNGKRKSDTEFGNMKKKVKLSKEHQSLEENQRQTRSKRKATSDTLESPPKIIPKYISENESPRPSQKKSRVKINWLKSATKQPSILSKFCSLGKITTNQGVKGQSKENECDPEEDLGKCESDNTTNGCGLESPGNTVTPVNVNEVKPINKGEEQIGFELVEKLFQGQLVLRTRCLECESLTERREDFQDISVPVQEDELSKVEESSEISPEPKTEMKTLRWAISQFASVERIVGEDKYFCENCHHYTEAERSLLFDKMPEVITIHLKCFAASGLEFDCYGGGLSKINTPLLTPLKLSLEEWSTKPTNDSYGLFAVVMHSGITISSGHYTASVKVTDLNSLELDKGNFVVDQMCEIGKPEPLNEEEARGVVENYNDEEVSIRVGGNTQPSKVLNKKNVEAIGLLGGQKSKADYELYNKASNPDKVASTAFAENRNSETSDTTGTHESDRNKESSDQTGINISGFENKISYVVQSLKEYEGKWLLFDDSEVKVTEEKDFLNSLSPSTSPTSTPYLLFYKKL

target: Ubiquitin carboxyl-terminal hydrolase 1 (Homo sapiens) (UniProt O94782); test: Inhibitors of USP1/UAF1: Primary Screen; details: recombinant USP1/UAF1, Ub-Rhodamine cleavage fluorescence; series mostly up to 57.1 µM; note: nearly all actives have a fitted effect of over 60% in size
Procedure, shortened: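 Step one: compound is pinned into 1nM USP1/UAF1 in HEPES pH 7.8 buffer with TCEP. Step two: 15 min room-temperature incubation. Step three: Ub-Rho (150nM final) starts cleavage, tracked by fluorescence over six one-minute reads.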
Potency is the fitted concentration of half-maximal effect.

Potency, active:
CCCCCCc1cc2cc(-c3nnc(-c4ccccc4)o3)c(=O)oc2cc1O 8.91 µM

Potency, inactive:
CC(C)Cn1cnc2c1c(=O)[nH]c(=O)n2Cc1ccccc1, COC(=O)c1sccc1S(=O)(=O)N(CC(=O)NCc1ccc(F)cc1)c1ccccc1, CC1CCCN(C(=O)c2ccc(CSc3nc4ccncc4n3Cc3ccccc3)cc2)C1 (stereo not drawn), CCCCCC(=O)N1C[C@@H](O)[C@H](n2cc(COC(=O)c3ccccc3)nn2)C[C@@H]1c1ccc(Cl)cc1, CC1CC(C)CN(CCC(=O)Nc2ccc(Br)cc2)C1 (stereo not drawn), CCc1ccc(NC(=O)N2CCN(c3nnc(C)c4c(C)n(-c5ccc(Cl)cc5)nc34)CC2)cc1, Cc1ccc(NC(=O)C2=C(c3ccccc3)S(=O)(=O)CCS2(=O)=O)cc1, Cc1ccc(NC(=O)c2ccc(F)c(S(=O)(=O)NCCc3ccccc3)c2)cc1F, COc1ccc(NCC(=O)Nc2ccc(C#N)cc2)cc1Cl, COc1ccc(NC(=O)CC2Sc3ncnn3C2=O)cc1 (stereo not drawn), CN1C(=O)/C(=C\c2ccccc2F)Sc2ccc(C(=O)NC3CCN(Cc4ccccc4)CC3)cc21, N#C/C(=N\Nc1ccc(Cl)cc1)C(=O)c1ccccc1, O=C1c2ccccc2C(Nc2ccccc2F)N1c1cccnc1 (stereo not drawn), CC(C)(C)NC(=S)Nc1ccc(Nc2ccccc2)cc1, Cc1ccc(NC(=O)CN(C)C(=O)c2ccc(Cl)c([N+](=O)[O-])c2)cc1

Potency, inconclusive:
O=c1c2sc3ccccc3c2n(Cc2cccc(Cl)c2)c(=O)n1Cc1ccc(F)cc1 0.631 µM [inhibitor, full curve], C=CCOc1ccc(/C=C2\SC(=S)N(NS(=O)(=O)c3ccc(C)cc3)C2=O)cc1 44.7 µM [inhibitor, partial curve, poor fit], Cc1ccccc1CN1C(=O)C(O)(c2c[nH]c3ccccc23)c2cc(Cl)ccc21 (stereo not drawn) 112 µM [inhibitor, partial curve], CCN(CC)c1cc(NC2CCCCC2)c2c3c(onc13)-c1ccccc1C2=O 35.5 µM [inhibitor, single point], CCOC(=O)/C(C#N)=C/c1ccc(N2CCN(Cc3ccccc3)CC2)cc1 35.5 µM [inhibitor, partial curve, poor fit], CSc1ccc(C(=O)NCC(c2ccco2)N(C)C)cc1[N+](=O)[O-] (stereo not drawn) 50.1 µM [inhibitor, partial curve, poor fit], O=C(NCc1ccc(Cl)cc1)c1cc2cccc3c2n1CCS3 0.224 µM [inhibitor, full curve, poor fit], COc1ccc(NC(=O)Nc2ccc(O)c3ccccc23)cc1 31.6 µM [inhibitor, partial curve], Cn1c(CSc2nc3ccccc3s2)nnc1SCC(=O)NCCN1CCOCC1 31.6 µM [inhibitor, single point], CCOC(=O)Cn1c(=N)n(CCOc2ccc(OC)cc2)c2ccccc21 0.355 µM [inhibitor, full curve, poor fit], Cn1c(=O)[nH]c(=O)c2c1nc(Br)n2CCSc1nnnn1-c1ccccc1 14.1 µM [inhibitor, partial curve], CN(C)S(=O)(=O)c1cccc(C(=O)NCC2CCCCC2)c1 35.5 µM [inhibitor, single point], COc1ccc(N2C(=O)c3cccc4c(N(C)CCO)ccc(c34)C2=O)cc1 35.5 µM [inhibitor, single point], Cc1cc(C)cc(NC(=O)CSc2nccn2C2CCCC2)c1 0.447 µM [inhibitor, full curve, poor fit], Cc1cccc(CCNC(=O)C2CCCN(S(=O)(=O)c3cnc[nH]3)C2)c1 (stereo not drawn) 0.355 µM [inhibitor, full curve], Cc1oc(-c2cccc(Br)c2)nc1CN1CCC(C(=O)NCc2ccccc2)CC1 0.891 µM [inhibitor, full curve], Cc1nc(-c2ccccc2)sc1-c1ccc(SCC(=O)Nc2ccccc2)nn1 20 µM [inhibitor, single point], O=C(CS(=O)(=O)c1nc(-c2ccc(Cl)cc2)cn1-c1ccccc1)Nc1cccc(Cl)c1 7.08 µM [inhibitor, single point], CCOc1ccc(-n2c(SCC(=O)Nc3ccc(Br)cc3)nc3n[nH]c(C)c3c2=N)cc1 25.1 µM [inhibitor, partial curve], O=C(NCc1ccccc1Cl)c1cc(-c2ccccc2)n[nH]1 2 µM [inhibitor, partial curve, poor fit], Cc1nn(-c2ccccc2)c2nc(-c3ccco3)cc(C(=O)O)c12 50.1 µM [inhibitor, partial curve, poor fit], COC(=O)c1c(C(=O)OC)c2cc(C(=O)c3ccccc3)ccn2c1Cl 44.7 µM [inhibitor, partial curve], S=C1NCCNC(=S)NCCOCCOCCN1 44.7 µM [inhibitor, partial curve, poor fit], C=CC[C@H](CC(=O)OC(C)(C)C)C(=O)OC[C@@H]1CCCN1C(=O)[C@@H](CC=C)CC(=O)NCCO 7.94 µM [inhibitor, partial curve, poor fit], Cc1c(C(=O)N2CCCC2)oc2c1-c1nn(CC(=O)NCc3ccccc3F)cc1CC2 35.5 µM [inhibitor, single point], Cc1cc(O)c(C(C)C)cc1N=Cc1ccc([N+](=O)[O-])cc1 31.6 µM [inhibitor, partial curve], COc1ccc(NC(=O)N/C=C/c2ccco2)cc1 7.08 µM [inhibitor, single point]
